Measurements reported in the supplement of paper PMC10727501.
This is one part of the list. This data set is noisy: repeats of one test often differ as much as different tests do.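 Free-swimming zebrafish larvae were scored for O-bend response probability to dark flashes (naive: first five; training: remaining flashes of four 60-flash blocks; test: later 60-flash block) and for turning toward alternating leftward/rightward LED motion (OMR). Six treated larvae were compared with sixty 0.1% DMSO controls; |SSMD|≥2 defined a hit.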

These compounds were tested on Danio rerio larvae (5 dpf, TLF) (assay: Prob-Test (SSMD vs DMSO vehicle); higher = higher than vehicle (e.g. higher dark-flash O-bend response probability, or better optomotor performance)). Conditions: 10 µM; pre-incubation: 30-90 min.
`CN(c1ncccc1CNc1nc(Nc2ccc3c(c2)CC(=O)N3)ncc1C(F)(F)F)S(C)(=O)=O` gave a Prob-Test of -0.494. `C/C(O)=C(\C#N)C(=O)Nc1ccc(C(F)(F)F)cc1` [Teriflunomide] showed a Prob-Test of 0.214. `N#CC(=Cc1ccc(-c2cc(Cl)ccc2Cl)o1)C(=O)Nc1cccc2ncccc12` gave a Prob-Test of -0.865. Compound `Cc1nc(N)sc1-c1ccnc(Nc2ccc(N3CCOCC3)cc2)n1` has a Prob-Test of 0.19. With `Br.Br.NCCCCCNCC12CC3CC(CC(C3)C1)C2` [IEM 1754 dihydrobroMide] the Prob-Test was 0.166. For `COC(=O)N[C@H](C(=O)N[C@@H](Cc1ccccc1)[C@@H](O)CN(Cc1ccc(-c2ccccn2)cc1)NC(=O)[C@@H](NC(=O)OC)C(C)(C)C)C(C)(C)C.O=S(=O)(O)O` [Atazanavir Sulfate], the Prob-Test was 0.22. `C[C@]12C=CC(=O)C=C1CC[C@H]1[C@@H]3C[C@@H](O)[C@@](O)(C(=O)CO)[C@@]3(C)C[C@@H](O)[C@]12F` [Triamcinolone] gave a Prob-Test of 0.907. `CCOc1nc2cccc(C(=O)OCc3oc(=O)oc3C)c2n1Cc1ccc(-c2ccccc2-c2nc(=O)o[nH]2)cc1` [Azilsartan Medoxomil] was tested, and the Prob-Test was 0.228. `CC(C)n1c(/C=C/[C@@H](O)C[C@@H](O)CC(=O)[O-])c(-c2ccc(F)cc2)c2ccccc21.[Na+]` [Fluvastatin Sodium] was tested, and the Prob-Test was -0.519. Compound `C[N+](C)(C)CCO.[Cl-]` [Choline Chloride] has a Prob-Test of -0.477. With `C[C@@H]1COc2c(N3CCN(C)CC3)c(F)cc3c(=O)c(C(=O)O)cn1c23` [Levofloxacin] the Prob-Test was 0.159. For `O=C1NC(=O)C(c2ccccc2)(c2ccccc2)N1` [Phenytoin], the Prob-Test was -0.215. Work on `CCn1cc(C(=O)O)c(=O)c2cc(F)c(N3CCNCC3)nc21` [Enoxacin] yielded a Prob-Test of -0.107. `OC(Cn1cncn1)(Cn1cncn1)c1ccc(F)cc1F` [Fluconazole] gave a Prob-Test of 0.118. Compound `CC(C)NCC(O)COc1cccc2ccccc12.Cl` (stereo not drawn) [Propranolol HCl] has a Prob-Test of 0.334. Work on `Cc1ccc(S(=O)(=O)Cc2nc(-c3ccc(C(=O)NCc4cccnc4)cc3)oc2C)cc1` yielded a Prob-Test of -0.712. In the case of `CC[C@H]1OC(=O)[C@H](C)[C@H](O[C@@H]2C[C@@](C)(OC)[C@@H](O)[C@H](C)O2)[C@H](C)[C@@H](O[C@@H]2O[C@H](C)C[C@H](N(C)C)[C@@H]2O)[C@](C)(OC)C[C@@H](C)C(=O)[C@H](C)[C@@H](O)[C@]1(C)O` [Clarithromycin], the Prob-Test is reported as -0.233. `Nc1nc(N)c(N=O)c(OCC2CCCCC2)n1` gave a Prob-Test of 0.0452. `c1ccc(NCc2ccc(CNc3ccccn3)cc2)nc1` was tested, and the Prob-Test was -0.251. For `NC(=O)c1ccc(I)c([N+](=O)[O-])c1` [Iniparib (BSI-201)], the Prob-Test was -0.576. With `CC1(C)O[C@@H]2C[C@H]3[C@@H]4CCC5=CC(=O)C=C[C@]5(C)[C@@H]4[C@H](O)C[C@]3(C)[C@@]2(C(=O)CO)O1` [Desonide] the Prob-Test was -0.242. `O=c1oc2cc(O)ccc2s1` [Tioxolone] showed a Prob-Test of -1.79. Work on `O=P(O)(O)C(O)(Cc1cccnc1)P(=O)(O)O` [Risedronic acid (Actonel)] yielded a Prob-Test of -0.465.
